# Test results taken from the supplement of paper PMC4604168 (melanoma cell lines).
# The list shows a part of the results. Repeats are few or missing, and single values can be far off.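 Cells were imaged in 1,536-well plates, and nuclei stained with an antibody against cleaved PARP were counted against all DNA-stained nuclei to give the apoptosis fraction. Screening doses were chosen to leave most cells alive, and resting and induced cleaved-PARP levels differ strongly between cell lines.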
# Test system: WM115
# Assay: cleaved PARP positive nuclei fraction relative to DMSO control; melanoma cells; higher = more apoptosis
# Conditions: library dose: low library concentration; 72 h
row,Compound,cleaved PARP positive nuclei fraction [%]
1,"CO[C@H]1C[C@@H]2CC[C@@H](C)[C@@](O)(O2)C(=O)C(=O)N2CCCC[C@H]2C(=O)O[C@H]([C@H](C)C[C@@H]2CC[C@@H](OCCO)[C@H](OC)C2)CC(=O)[C@H](C)/C=C(\C)[C@@H](O)[C@@H](OC)C(=O)[C@H](C)C[C@H](C)/C=C/C=C/C=C/1C [everolimus] + c1cc(-c2cnn3cc(-c4ccc(OCCN5CCCCC5)cc4)cnc23)ccn1 [Dorsomorphin] (first compound 0.02 µM, partner dose 0.4 µM)",145
2,"Cn1c(=O)n(-c2ccc(C(C)(C)C#N)cc2)c2c3cc(-c4cnc5ccccc5c4)ccc3ncc21 + CO[C@H]1C[C@@H]2CC[C@@H](C)[C@@](O)(O2)C(=O)C(=O)N2CCCC[C@H]2C(=O)O[C@H]([C@H](C)C[C@@H]2CC[C@@H](OCCO)[C@H](OC)C2)CC(=O)[C@H](C)/C=C(\C)[C@@H](O)[C@@H](OC)C(=O)[C@H](C)C[C@H](C)/C=C/C=C/C=C/1C [everolimus] (first compound 0.004 µM, partner dose 0.02 µM)",411
3,"C[C@@H](Oc1cc(-c2cnn(C3CCNCC3)c2)cnc1N)c1c(Cl)ccc(F)c1Cl [Crizotinib] + CNC(=O)c1cc(Oc2ccc(NC(=O)Nc3ccc(Cl)c(C(F)(F)F)c3)cc2)ccn1 [sorafenib] (first compound 0.2 µM, partner dose 0.4 µM)",109
4,"CO[C@H]1C[C@@H]2CC[C@@H](C)[C@@](O)(O2)C(=O)C(=O)N2CCCC[C@H]2C(=O)O[C@H]([C@H](C)C[C@@H]2CC[C@@H](OCCO)[C@H](OC)C2)CC(=O)[C@H](C)/C=C(\C)[C@@H](O)[C@@H](OC)C(=O)[C@H](C)C[C@H](C)/C=C/C=C/C=C/1C [everolimus] + O=C(Nc1cccc(Cl)c1)Nc1ncc(CCNc2ncnc3ccsc23)s1 [SNS314] (first compound 0.02 µM, partner dose 0.0008 µM)",83.1
5,"CO[C@H]1C[C@@H]2CC[C@@H](C)[C@@](O)(O2)C(=O)C(=O)N2CCCC[C@H]2C(=O)O[C@H]([C@H](C)C[C@@H]2CC[C@@H](OCCO)[C@H](OC)C2)CC(=O)[C@H](C)/C=C(\C)[C@@H](O)[C@@H](OC)C(=O)[C@H](C)C[C@H](C)/C=C/C=C/C=C/1C [everolimus] + Oc1nc(-c2ccc(C(F)(F)F)cc2)nc2c1CSCC2 [XAV939] (first compound 0.02 µM, partner dose 2 µM)",205
6,"CO[C@H]1C[C@@H]2CC[C@@H](C)[C@@](O)(O2)C(=O)C(=O)N2CCCC[C@H]2C(=O)O[C@H]([C@H](C)C[C@@H]2CC[C@@H](OCCO)[C@H](OC)C2)CC(=O)[C@H](C)/C=C(\C)[C@@H](O)[C@@H](OC)C(=O)[C@H](C)C[C@H](C)/C=C/C=C/C=C/1C [everolimus] + Cc1nc(Nc2ncc(C(=O)Nc3c(C)cccc3Cl)s2)cc(N2CCN(CCO)CC2)n1 [dasatanib] (first compound 0.02 µM, partner dose 0.004 µM)",178
7,"CO[C@H]1C[C@@H]2CC[C@@H](C)[C@@](O)(O2)C(=O)C(=O)N2CCCC[C@H]2C(=O)O[C@H]([C@H](C)C[C@@H]2CC[C@@H](OCCO)[C@H](OC)C2)CC(=O)[C@H](C)/C=C(\C)[C@@H](O)[C@@H](OC)C(=O)[C@H](C)C[C@H](C)/C=C/C=C/C=C/1C [everolimus] + CC1(C)NC(=O)N(c2ccc([N+](=O)[O-])c(C(F)(F)F)c2)C1=O [nilutamide] (first compound 0.02 µM, partner dose 1 µM)",122
8,"CO[C@H]1C[C@@H]2CC[C@@H](C)[C@@](O)(O2)C(=O)C(=O)N2CCCC[C@H]2C(=O)O[C@H]([C@H](C)C[C@@H]2CC[C@@H](OCCO)[C@H](OC)C2)CC(=O)[C@H](C)/C=C(\C)[C@@H](O)[C@@H](OC)C(=O)[C@H](C)C[C@H](C)/C=C/C=C/C=C/1C [everolimus] + Nc1cccc2c1CN(C1CCC(=O)NC1=O)C2=O [lenalidomide] (first compound 0.02 µM, partner dose 1 µM)",194
9,"CO[C@H]1C[C@@H]2CC[C@@H](C)[C@@](O)(O2)C(=O)C(=O)N2CCCC[C@H]2C(=O)O[C@H]([C@H](C)C[C@@H]2CC[C@@H](OCCO)[C@H](OC)C2)CC(=O)[C@H](C)/C=C(\C)[C@@H](O)[C@@H](OC)C(=O)[C@H](C)C[C@H](C)/C=C/C=C/C=C/1C [everolimus] + Nc1nc(F)nc2c1ncn2[C@@H]1O[C@H](CO)[C@@H](O)[C@@H]1O [fludarabine] (first compound 0.02 µM, partner dose 0.2 µM)",160
10,"CO[C@H]1C[C@@H]2CC[C@@H](C)[C@@](O)(O2)C(=O)C(=O)N2CCCC[C@H]2C(=O)O[C@H]([C@H](C)C[C@@H]2CC[C@@H](OCCO)[C@H](OC)C2)CC(=O)[C@H](C)/C=C(\C)[C@@H](O)[C@@H](OC)C(=O)[C@H](C)C[C@H](C)/C=C/C=C/C=C/1C [everolimus] + C=CCn1c(=O)c2cnc(Nc3ccc(N4CCN(C)CC4)cc3)nc2n1-c1cccc(C(C)(C)O)n1 [MK1775] (first compound 0.02 µM, partner dose 0.02 µM)",257
11,"CO[C@H]1C[C@@H]2CC[C@@H](C)[C@@](O)(O2)C(=O)C(=O)N2CCCC[C@H]2C(=O)O[C@H]([C@H](C)C[C@@H]2CC[C@@H](OCCO)[C@H](OC)C2)CC(=O)[C@H](C)/C=C(\C)[C@@H](O)[C@@H](OC)C(=O)[C@H](C)C[C@H](C)/C=C/C=C/C=C/1C [everolimus] + Nc1ncn([C@H]2C[C@H](O)[C@@H](CO)O2)c(=O)n1 [decitabine] (first compound 0.02 µM, partner dose 0.1 µM)",133
12,"CO[C@H]1C[C@@H]2CC[C@@H](C)[C@@](O)(O2)C(=O)C(=O)N2CCCC[C@H]2C(=O)O[C@H]([C@H](C)C[C@@H]2CC[C@@H](OCCO)[C@H](OC)C2)CC(=O)[C@H](C)/C=C(\C)[C@@H](O)[C@@H](OC)C(=O)[C@H](C)C[C@H](C)/C=C/C=C/C=C/1C [everolimus] + CC(C)(C)c1cnc(CSc2cnc(NC(=O)C3CCNCC3)s2)o1 [SNS-032] (first compound 0.02 µM, partner dose 0.01 µM)",342
13,"CO[C@H]1C[C@@H]2CC[C@@H](C)[C@@](O)(O2)C(=O)C(=O)N2CCCC[C@H]2C(=O)O[C@H]([C@H](C)C[C@@H]2CC[C@@H](OCCO)[C@H](OC)C2)CC(=O)[C@H](C)/C=C(\C)[C@@H](O)[C@@H](OC)C(=O)[C@H](C)C[C@H](C)/C=C/C=C/C=C/1C [everolimus] + Cc1cc([N+](=O)[O-])ccc1NS(=O)(=O)c1cc(Cl)ccc1Cl [FH535] (first compound 0.02 µM, partner dose 1 µM)",336
14,"CO[C@H]1C[C@@H]2CC[C@@H](C)[C@@](O)(O2)C(=O)C(=O)N2CCCC[C@H]2C(=O)O[C@H]([C@H](C)C[C@@H]2CC[C@@H](OCCO)[C@H](OC)C2)CC(=O)[C@H](C)/C=C(\C)[C@@H](O)[C@@H](OC)C(=O)[C@H](C)C[C@H](C)/C=C/C=C/C=C/1C [everolimus] + O=C(O)c1ccc(-c2c[nH]c3ncc(-c4ccccc4)cc23)cc1C1CCCC1 [GSK650394] (first compound 0.02 µM, partner dose 0.16 µM)",147
15,"CO[C@H]1C[C@@H]2CC[C@@H](C)[C@@](O)(O2)C(=O)C(=O)N2CCCC[C@H]2C(=O)O[C@H]([C@H](C)C[C@@H]2CC[C@@H](OCCO)[C@H](OC)C2)CC(=O)[C@H](C)/C=C(\C)[C@@H](O)[C@@H](OC)C(=O)[C@H](C)C[C@H](C)/C=C/C=C/C=C/1C [everolimus] + COc1ccc(COc2ccc(Cc3cnc(N)nc3N)cc2OC)cc1 [GW2580] (first compound 0.02 µM, partner dose 1 µM)",97.1
16,"CO[C@H]1C[C@@H]2CC[C@@H](C)[C@@](O)(O2)C(=O)C(=O)N2CCCC[C@H]2C(=O)O[C@H]([C@H](C)C[C@@H]2CC[C@@H](OCCO)[C@H](OC)C2)CC(=O)[C@H](C)/C=C(\C)[C@@H](O)[C@@H](OC)C(=O)[C@H](C)C[C@H](C)/C=C/C=C/C=C/1C [everolimus] + O=S(=O)(c1ccccc1)N(CC(F)(F)F)c1ccc(C(O)(C(F)(F)F)C(F)(F)F)cc1 [T0901317] (first compound 0.02 µM, partner dose 1.4 µM)",98.4
17,"Cn1c(=O)n(-c2ccc(C(C)(C)C#N)cc2)c2c3cc(-c4cnc5ccccc5c4)ccc3ncc21 + CN1CCN(c2ccc3nc(-c4c(N)c5c(F)cccc5[nH]c4=O)[nH]c3c2)CC1 [Dovitinib] (first compound 0.004 µM, partner dose 0.1 µM)",124
18,"CO[C@H]1C[C@@H]2CC[C@@H](C)[C@@](O)(O2)C(=O)C(=O)N2CCCC[C@H]2C(=O)O[C@H]([C@H](C)C[C@@H]2CC[C@@H](OCCO)[C@H](OC)C2)CC(=O)[C@H](C)/C=C(\C)[C@@H](O)[C@@H](OC)C(=O)[C@H](C)C[C@H](C)/C=C/C=C/C=C/1C [everolimus] + COc1cc(Nc2ncc(F)c(Nc3ccc4c(n3)NC(=O)C(C)(C)O4)n2)cc(OC)c1OC [Tamatinib] (first compound 0.02 µM, partner dose 0.4 µM)",317

# Part of the list above, reformatted:
row	Compound	cleaved PARP positive nuclei fraction [%]
12	CO[C@H]1C[C@@H]2CC[C@@H](C)[C@@](O)(O2)C(=O)C(=O)N2CCCC[C@H]2C(=O)O[C@H]([C@H](C)C[C@@H]2CC[C@@H](OCCO)[C@H](OC)C2)CC(=O)[C@H](C)/C=C(\C)[C@@H](O)[C@@H](OC)C(=O)[C@H](C)C[C@H](C)/C=C/C=C/C=C/1C [everolimus] + CC(C)(C)c1cnc(CSc2cnc(NC(=O)C3CCNCC3)s2)o1 [SNS-032] (first compound 0.02 µM, partner dose 0.01 µM)	342
13	CO[C@H]1C[C@@H]2CC[C@@H](C)[C@@](O)(O2)C(=O)C(=O)N2CCCC[C@H]2C(=O)O[C@H]([C@H](C)C[C@@H]2CC[C@@H](OCCO)[C@H](OC)C2)CC(=O)[C@H](C)/C=C(\C)[C@@H](O)[C@@H](OC)C(=O)[C@H](C)C[C@H](C)/C=C/C=C/C=C/1C [everolimus] + Cc1cc([N+](=O)[O-])ccc1NS(=O)(=O)c1cc(Cl)ccc1Cl [FH535] (first compound 0.02 µM, partner dose 1 µM)	336
